Measured values: the supplement of paper PMC10849652
The other results are listed elsewhere or left out.

Protein sequences, listed by entry. Tags and fused reporters are not part of them. Lines headed by an entry give the natural chain unless they say otherwise; changes in a name come on top.
UniProt O95671: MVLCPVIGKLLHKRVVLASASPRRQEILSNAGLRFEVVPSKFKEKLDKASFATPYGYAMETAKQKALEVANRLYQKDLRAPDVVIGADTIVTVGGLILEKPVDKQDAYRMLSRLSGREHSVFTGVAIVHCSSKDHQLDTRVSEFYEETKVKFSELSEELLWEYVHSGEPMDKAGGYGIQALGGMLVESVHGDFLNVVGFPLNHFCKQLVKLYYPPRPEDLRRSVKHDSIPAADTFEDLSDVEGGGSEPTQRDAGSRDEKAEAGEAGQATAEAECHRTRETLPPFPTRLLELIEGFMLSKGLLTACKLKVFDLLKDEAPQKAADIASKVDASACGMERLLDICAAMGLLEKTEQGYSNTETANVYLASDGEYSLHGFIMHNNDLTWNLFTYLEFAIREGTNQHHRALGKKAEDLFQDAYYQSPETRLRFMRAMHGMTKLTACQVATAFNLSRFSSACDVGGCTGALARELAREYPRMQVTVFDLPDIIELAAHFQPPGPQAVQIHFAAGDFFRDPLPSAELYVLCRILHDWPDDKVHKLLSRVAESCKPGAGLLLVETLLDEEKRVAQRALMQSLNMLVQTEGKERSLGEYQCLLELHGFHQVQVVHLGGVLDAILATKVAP
UniProt P30049: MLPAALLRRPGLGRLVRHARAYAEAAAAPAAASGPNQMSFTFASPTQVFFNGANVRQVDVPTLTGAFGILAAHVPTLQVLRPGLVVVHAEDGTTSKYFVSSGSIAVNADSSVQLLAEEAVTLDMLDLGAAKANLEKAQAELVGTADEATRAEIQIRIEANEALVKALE
UniProt Q9BSB4: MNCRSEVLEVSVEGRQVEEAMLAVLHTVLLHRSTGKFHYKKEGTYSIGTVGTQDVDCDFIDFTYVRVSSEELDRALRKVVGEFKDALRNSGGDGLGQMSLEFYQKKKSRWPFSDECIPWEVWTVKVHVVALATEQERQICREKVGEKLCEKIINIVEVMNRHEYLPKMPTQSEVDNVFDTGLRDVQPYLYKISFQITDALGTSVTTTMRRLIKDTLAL
UniProt Q9BPX5, whole entry, looked up: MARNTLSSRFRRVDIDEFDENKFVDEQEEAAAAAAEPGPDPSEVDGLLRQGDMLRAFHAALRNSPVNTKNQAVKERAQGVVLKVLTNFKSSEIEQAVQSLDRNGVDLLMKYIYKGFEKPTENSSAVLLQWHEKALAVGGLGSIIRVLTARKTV
UniProt P04424, whole entry, looked up: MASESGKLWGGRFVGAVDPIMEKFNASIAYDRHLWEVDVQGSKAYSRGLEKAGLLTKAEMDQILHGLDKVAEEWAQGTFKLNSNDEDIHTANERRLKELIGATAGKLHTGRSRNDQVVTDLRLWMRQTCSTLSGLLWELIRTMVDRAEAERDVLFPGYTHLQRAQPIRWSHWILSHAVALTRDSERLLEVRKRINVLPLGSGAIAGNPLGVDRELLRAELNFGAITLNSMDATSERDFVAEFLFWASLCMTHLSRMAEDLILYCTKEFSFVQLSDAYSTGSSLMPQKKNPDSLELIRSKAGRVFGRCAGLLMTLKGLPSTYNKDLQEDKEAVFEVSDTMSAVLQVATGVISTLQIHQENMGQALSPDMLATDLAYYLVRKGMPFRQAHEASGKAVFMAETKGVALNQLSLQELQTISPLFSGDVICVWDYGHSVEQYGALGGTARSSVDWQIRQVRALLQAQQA
UniProt Q9NVT9: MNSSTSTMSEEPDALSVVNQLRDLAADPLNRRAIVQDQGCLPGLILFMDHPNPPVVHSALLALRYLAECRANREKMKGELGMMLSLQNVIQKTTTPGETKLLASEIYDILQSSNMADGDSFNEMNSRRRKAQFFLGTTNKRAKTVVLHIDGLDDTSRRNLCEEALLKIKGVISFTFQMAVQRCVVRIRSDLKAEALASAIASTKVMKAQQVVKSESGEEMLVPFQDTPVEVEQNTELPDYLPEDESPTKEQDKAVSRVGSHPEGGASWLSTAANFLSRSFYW
UniProt Q9Y2G3: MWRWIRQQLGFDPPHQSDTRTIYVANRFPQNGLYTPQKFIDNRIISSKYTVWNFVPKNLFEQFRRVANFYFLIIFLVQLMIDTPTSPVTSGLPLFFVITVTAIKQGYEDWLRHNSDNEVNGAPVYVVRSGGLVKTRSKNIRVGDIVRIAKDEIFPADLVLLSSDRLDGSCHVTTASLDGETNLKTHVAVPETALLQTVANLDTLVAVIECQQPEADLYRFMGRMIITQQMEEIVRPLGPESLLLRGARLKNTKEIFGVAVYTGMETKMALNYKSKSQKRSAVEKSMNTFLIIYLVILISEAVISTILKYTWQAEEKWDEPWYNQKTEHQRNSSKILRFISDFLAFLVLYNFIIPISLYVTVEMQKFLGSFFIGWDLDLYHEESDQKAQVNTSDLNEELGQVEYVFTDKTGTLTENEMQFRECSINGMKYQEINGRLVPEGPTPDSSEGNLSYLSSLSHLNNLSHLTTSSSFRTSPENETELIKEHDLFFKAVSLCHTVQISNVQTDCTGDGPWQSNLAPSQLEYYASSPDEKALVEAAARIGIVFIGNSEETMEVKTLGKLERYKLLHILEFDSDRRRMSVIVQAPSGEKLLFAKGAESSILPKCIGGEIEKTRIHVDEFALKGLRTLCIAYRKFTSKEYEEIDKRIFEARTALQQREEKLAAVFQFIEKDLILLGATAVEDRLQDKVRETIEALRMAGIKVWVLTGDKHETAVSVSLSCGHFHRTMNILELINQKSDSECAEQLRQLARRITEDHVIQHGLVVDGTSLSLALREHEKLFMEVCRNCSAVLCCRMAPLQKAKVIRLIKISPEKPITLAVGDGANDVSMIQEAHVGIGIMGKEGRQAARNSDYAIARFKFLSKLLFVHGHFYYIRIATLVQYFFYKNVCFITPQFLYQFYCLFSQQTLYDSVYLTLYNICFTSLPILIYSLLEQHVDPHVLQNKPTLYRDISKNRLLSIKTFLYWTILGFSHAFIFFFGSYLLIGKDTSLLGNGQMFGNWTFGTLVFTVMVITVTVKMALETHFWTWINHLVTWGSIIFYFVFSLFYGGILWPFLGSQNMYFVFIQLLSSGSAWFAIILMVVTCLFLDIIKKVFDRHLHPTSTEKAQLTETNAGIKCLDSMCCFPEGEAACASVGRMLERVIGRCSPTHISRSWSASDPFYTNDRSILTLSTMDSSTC
UniProt Q9NT62, whole entry, looked up: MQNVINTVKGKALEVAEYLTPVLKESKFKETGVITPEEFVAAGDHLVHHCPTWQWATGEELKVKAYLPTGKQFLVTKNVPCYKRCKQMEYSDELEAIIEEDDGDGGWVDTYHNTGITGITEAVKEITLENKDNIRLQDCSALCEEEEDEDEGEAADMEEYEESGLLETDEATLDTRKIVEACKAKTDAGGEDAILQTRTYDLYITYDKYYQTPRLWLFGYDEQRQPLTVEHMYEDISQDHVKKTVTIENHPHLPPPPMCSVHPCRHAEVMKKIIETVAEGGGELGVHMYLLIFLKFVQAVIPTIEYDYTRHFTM
UniProt O75787, whole entry, looked up: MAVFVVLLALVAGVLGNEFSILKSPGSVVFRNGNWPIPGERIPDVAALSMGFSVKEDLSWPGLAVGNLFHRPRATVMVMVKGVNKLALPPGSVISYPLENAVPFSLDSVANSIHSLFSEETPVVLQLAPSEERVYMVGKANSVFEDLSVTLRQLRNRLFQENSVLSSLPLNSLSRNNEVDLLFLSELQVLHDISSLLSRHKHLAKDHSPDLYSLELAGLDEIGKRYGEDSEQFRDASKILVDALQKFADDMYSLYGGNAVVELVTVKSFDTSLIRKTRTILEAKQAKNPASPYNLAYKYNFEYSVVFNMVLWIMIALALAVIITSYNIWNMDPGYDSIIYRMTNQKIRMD
UniProt P56378: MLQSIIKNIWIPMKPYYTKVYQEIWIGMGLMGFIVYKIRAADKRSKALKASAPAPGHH
UniProt P54259: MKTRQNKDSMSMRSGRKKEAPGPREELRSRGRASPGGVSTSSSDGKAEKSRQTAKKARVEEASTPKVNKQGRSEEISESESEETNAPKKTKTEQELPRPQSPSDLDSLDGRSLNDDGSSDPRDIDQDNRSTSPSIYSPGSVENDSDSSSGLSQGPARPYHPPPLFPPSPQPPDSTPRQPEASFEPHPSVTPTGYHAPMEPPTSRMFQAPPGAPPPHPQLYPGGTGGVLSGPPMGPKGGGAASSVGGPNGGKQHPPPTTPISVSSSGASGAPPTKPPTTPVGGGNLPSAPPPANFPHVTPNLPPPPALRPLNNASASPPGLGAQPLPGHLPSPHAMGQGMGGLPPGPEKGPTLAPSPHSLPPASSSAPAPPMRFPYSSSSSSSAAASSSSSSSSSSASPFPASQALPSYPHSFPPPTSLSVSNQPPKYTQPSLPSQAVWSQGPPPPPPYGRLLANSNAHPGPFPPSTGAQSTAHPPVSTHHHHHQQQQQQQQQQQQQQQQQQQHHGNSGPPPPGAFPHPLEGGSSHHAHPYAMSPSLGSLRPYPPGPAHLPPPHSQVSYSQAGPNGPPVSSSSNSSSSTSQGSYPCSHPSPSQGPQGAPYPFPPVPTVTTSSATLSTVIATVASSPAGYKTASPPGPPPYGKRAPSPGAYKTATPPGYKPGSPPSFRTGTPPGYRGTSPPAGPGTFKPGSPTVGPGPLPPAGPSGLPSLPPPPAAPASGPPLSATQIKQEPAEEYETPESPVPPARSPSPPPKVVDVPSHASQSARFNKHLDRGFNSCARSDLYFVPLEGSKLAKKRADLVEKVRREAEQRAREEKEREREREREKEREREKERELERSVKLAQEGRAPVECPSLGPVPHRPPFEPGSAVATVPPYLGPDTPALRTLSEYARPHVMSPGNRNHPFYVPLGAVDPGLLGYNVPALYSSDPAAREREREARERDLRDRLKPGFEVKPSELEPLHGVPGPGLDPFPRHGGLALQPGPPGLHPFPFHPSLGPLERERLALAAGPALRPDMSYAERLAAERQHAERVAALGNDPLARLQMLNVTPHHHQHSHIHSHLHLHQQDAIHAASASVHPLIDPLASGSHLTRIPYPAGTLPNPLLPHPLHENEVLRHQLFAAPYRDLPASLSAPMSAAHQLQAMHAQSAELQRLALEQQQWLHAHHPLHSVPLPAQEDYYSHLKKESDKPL
UniProt P36404: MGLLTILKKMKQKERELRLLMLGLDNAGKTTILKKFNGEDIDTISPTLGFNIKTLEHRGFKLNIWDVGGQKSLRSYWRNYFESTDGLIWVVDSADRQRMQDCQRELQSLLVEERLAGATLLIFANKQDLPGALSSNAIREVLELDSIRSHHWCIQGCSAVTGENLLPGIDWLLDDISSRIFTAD
UniProt Q7L266: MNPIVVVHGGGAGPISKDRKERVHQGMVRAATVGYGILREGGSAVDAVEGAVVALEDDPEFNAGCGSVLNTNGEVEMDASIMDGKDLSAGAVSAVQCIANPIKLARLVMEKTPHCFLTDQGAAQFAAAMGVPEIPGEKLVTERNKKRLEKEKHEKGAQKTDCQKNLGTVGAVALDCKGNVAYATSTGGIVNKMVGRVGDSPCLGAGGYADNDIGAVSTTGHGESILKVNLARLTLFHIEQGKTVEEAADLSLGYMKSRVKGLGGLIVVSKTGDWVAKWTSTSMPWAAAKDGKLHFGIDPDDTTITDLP

Key:
Assay in all cases: log2 fold change, soluble protein after heating vs DMSO (PISA); higher = thermal stabilisation; K562 cells, 10 uM, 30 min; active = over 0.2 and 3.5 SD of the protein, either way, in both replicates (recomputed)
[1] = compound: CS(=O)(=O)c1ccc(-c2cnc(N)c(C(=O)Nc3ccccc3)n2)cc1
Summary of the method: (§1)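 For each measurement, 10 μM compound was applied for 30 min to K562 cells at 2×10^6 cells/mL. Aliquots were heated for 3 min across 48°C-58°C, pooled, and extracted in PBS with 0.5% NP-40 at 4°C; the supernatant after 21,000xg for 90 min was soluble protein. This was quantified by TMTpro 16plex LC-MS/MS with channel sums equalised, and thermal stability was reported relative to control samples from duplicates, on a log2 fold-change scale.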

crizotinib = compound: C[C@@H](Oc1cc(-c2cnn(C3CCNCC3)c2)cnc1N)c1c(Cl)ccc(F)c1Cl [crizotinib]
Summary of the method: as §1

[2] = compound: C[C@@H]1COCCN1C2=NC(=NC(=C2)C3(CC3)S(=O)(=O)C)C4=C5C=CNC5=CC=C4
Summary of the method: as §1

[3] = compound: C[C@H](C1=CC=C(C=C1)C(=O)NC2=C3C=CNC3=NC=C2)N
Summary of the method: as §1

duvelisib = compound: C[C@H](Nc1ncnc2nc[nH]c12)c1cc2cccc(Cl)c2c(=O)n1-c1ccccc1 [duvelisib]
Summary of the method: as §1

gandotinib = compound: Cc1cc(Nc2cc(CN3CCOCC3)c3nc(C)c(Cc4ccc(Cl)cc4F)n3n2)n[nH]1 [gandotinib]
Summary of the method: as §1

tozasertib = compound: Cc1cc(Nc2cc(N3CCN(C)CC3)nc(Sc3ccc(NC(=O)C4CC4)cc3)n2)n[nH]1 [tozasertib]
Summary of the method: as §1

[4] = compound: Cc1cc(SCc2sc(-c3ccc(C(F)(F)F)cc3)nc2C)ccc1OCC(=O)O
Summary of the method: as §1

doramapimod = compound: Cc1ccc(-n2nc(C(C)(C)C)cc2NC(=O)Nc2ccc(OCCN3CCOCC3)c3ccccc23)cc1 [doramapimod]
Summary of the method: as §1

ispinesib = compound: Cc1ccc(C(=O)N(CCCN)[C@@H](c2nc3cc(Cl)ccc3c(=O)n2Cc2ccccc2)C(C)C)cc1 [ispinesib]
Summary of the method: as §1

bafetinib = compound: Cc1ccc(NC(=O)c2ccc(CN3CC[C@H](N(C)C)C3)c(C(F)(F)F)c2)cc1Nc1nccc(-c2cncnc2)n1 [bafetinib]
Summary of the method: as §1

[5] = compound: Cc1cccc(CC(=O)N2CCc3c2ccc(-c2cn(C)c4ncnc(N)c24)c3F)n1
Summary of the method: as §1

nilotinib = compound: Cc1cn(-c2cc(NC(=O)c3ccc(C)c(Nc4nccc(-c5cccnc5)n4)c3)cc(C(F)(F)F)c2)cn1 [nilotinib]
Summary of the method: as §1

[6] = compound: Cc1nc(Nc2n[nH]c3c2CN(C(=O)N[C@H](CN(C)C)c2ccccc2)C3(C)C)c2sccc2n1
Summary of the method: as §1

dasatinib = compound: Cc1nc(Nc2ncc(C(=O)Nc3c(C)cccc3Cl)s2)cc(N2CCN(CCO)CC2)n1 [dasatinib]
Summary of the method: as §1

[7] = compound: Cc1ncc(-c2ccnc(Nc3ccc(S(C)(=O)=O)cc3)n2)n1C(C)C
Summary of the method: as §1

[8] = compound: Cn1cc(-c2ccc3c(c2)CCN3C(=O)Cc2cccc(C(F)(F)F)c2)c2c(N)ncnc21
Summary of the method: as §1

[9] = compound: Cn1cc(-c2ccc3nnc(C(F)(F)c4ccc5ncccc5c4)n3n2)cn1
Summary of the method: as §1

tipifarnib = compound: Cn1cncc1[C@@](N)(c1ccc(Cl)cc1)c1ccc2c(c1)c(-c1cccc(Cl)c1)cc(=O)n2C [tipifarnib]
Summary of the method: as §1

mubritinib = compound: FC(F)(F)c1ccc(/C=C/c2nc(COc3ccc(CCCCn4ccnn4)cc3)co2)cc1 [mubritinib]
Summary of the method: as §1

Measured: log2 fold change

ASMTL (UniProt O95671)
inactive: [1] 0.018 | crizotinib -0.122 | [2] 0.182 | [3] 0.089 | duvelisib 0.012 | gandotinib -0.09 | tozasertib -0.004 | [4] 0.058 | doramapimod 0.02 | ispinesib -0.249 | bafetinib 0.256 | [5] 0.081 | nilotinib -0.242 | [6] 0.006 | dasatinib 0 | [7] -0.037 | [8] 0.052 | [9] 0.2 | tipifarnib -0.031 | mubritinib 0.15

ATP5F1D (UniProt P30049)
inactive: [1] -0.02 | crizotinib 0.119 | [2] 0.113 | [3] -0.093 | duvelisib 0.068 | gandotinib 0.032 | tozasertib 0.051 | [4] -0.026 | doramapimod 0.038 | ispinesib 0.043 | bafetinib 0.019 | [5] -0.065 | nilotinib -0.043 | [6] 0.035 | dasatinib 0.097 | [7] 0.007 | [8] 0.015 | [9] 0.058 | tipifarnib 0.023 | mubritinib 0.041

ASAP1 isoform 2 (UniProt Q9ULH1)
inactive: [1] -0.032 | crizotinib -0.08 | [2] -0.022 | [3] -0.015 | duvelisib 0.01 | gandotinib 0.035 | tozasertib 0.052 | [4] 0.058 | doramapimod 0.057 | ispinesib 0.018 | bafetinib 0.151 | [5] 0.037 | nilotinib -0.034 | [6] -0.026 | dasatinib -0.071 | [7] 0.008 | [8] 0.031 | [9] 0.029 | tipifarnib 0 | mubritinib 0.122

ATG101 (UniProt Q9BSB4)
inactive: [1] -0.061 | crizotinib 0.018 | [2] -0.008 | [3] -0.012 | duvelisib 0.033 | gandotinib -0.007 | tozasertib -0.003 | [4] -0.044 | doramapimod -0.009 | ispinesib 0.044 | bafetinib -0.047 | [5] -0.03 | nilotinib 0.025 | [6] 0.088 | dasatinib 0.019 | [7] -0.021 | [8] -0.035 | [9] -0.046 | tipifarnib 0.049 | mubritinib 0.05

ARPC5L (UniProt Q9BPX5)
inactive: [1] 0.053 | crizotinib 0.066 | [2] -0.015 | [3] -0.098 | duvelisib 0 | gandotinib 0 | tozasertib 0.044 | [4] -0.011 | doramapimod -0.065 | ispinesib 0.082 | bafetinib -0.054 | [5] -0.032 | nilotinib 0.092 | [6] -0.053 | dasatinib 0.081 | [7] 0.018 | [8] -0.046 | [9] 0.05 | tipifarnib 0.016 | mubritinib 0.069

ASL (UniProt P04424)
inactive: [1] 0 | crizotinib -0.002 | [2] 0.034 | [3] -0.016 | duvelisib -0.017 | gandotinib -0.021 | tozasertib -0.034 | [4] -0.04 | doramapimod -0.006 | ispinesib 0.012 | bafetinib -0.038 | [5] 0.008 | nilotinib 0.031 | [6] -0.007 | dasatinib 0.013 | [7] -0.006 | [8] 0.018 | [9] 0.022 | tipifarnib -0.02 | mubritinib 0.066

ARMC1 (UniProt Q9NVT9)
inactive: [1] -0.024 | crizotinib -0.118 | [2] 0.047 | [3] -0.045 | duvelisib -0.013 | gandotinib -0.035 | tozasertib -0.006 | [4] 0.064 | doramapimod -0.05 | ispinesib -0.079 | bafetinib -0.014 | [5] 0.037 | nilotinib -0.081 | [6] -0.004 | dasatinib -0.118 | [7] -0.032 | [8] 0.032 | [9] -0.062 | tipifarnib -0.045 | mubritinib 0.054

ATP11B (UniProt Q9Y2G3)
inactive: [1] 0.025 | crizotinib 0.031 | [2] 0.033 | [3] -0.019 | duvelisib -0.007 | gandotinib 0.057 | tozasertib -0.046 | [4] -0.016 | doramapimod -0.019 | ispinesib -0.066 | bafetinib -0.057 | [5] -0.072 | nilotinib 0.035 | [6] 0.044 | dasatinib 0.019 | [7] 0.166 | [8] 0.004 | [9] 0.015 | tipifarnib -0.008 | mubritinib -0.007

ATG3 (UniProt Q9NT62)
inactive: [1] 0.03 | crizotinib -0.009 | [2] 0.039 | [3] -0.048 | duvelisib 0.039 | gandotinib -0.024 | tozasertib -0.007 | [4] -0.029 | doramapimod 0.007 | ispinesib 0.05 | bafetinib -0.059 | [5] -0.026 | nilotinib 0.029 | [6] 0.01 | dasatinib 0.017 | [7] -0.012 | [8] 0.013 | [9] 0.026 | tipifarnib -0.008 | mubritinib 0.059

ATP6AP2 (UniProt O75787)
inactive: [1] 0.026 | crizotinib -0.014 | [2] 0.004 | [3] 0.018 | duvelisib 0.026 | gandotinib 0.002 | tozasertib -0.141 | [4] 0.051 | doramapimod 0.035 | ispinesib -0.054 | bafetinib 0.039 | [5] 0.014 | nilotinib 0 | [6] 0.045 | dasatinib -0.049 | [7] 0.001 | [8] -0.032 | [9] 0.062 | tipifarnib 0.05 | mubritinib -0.016

ATP5MPL (UniProt P56378)
inactive: [1] 0.002 | crizotinib 0.089 | [2] 0.029 | [3] -0.135 | duvelisib 0.037 | gandotinib -0.028 | tozasertib 0.027 | [4] -0.088 | doramapimod -0.043 | ispinesib 0.233 | bafetinib 0.011 | [5] -0.036 | nilotinib 0.022 | [6] 0.007 | dasatinib 0.182 | [7] -0.039 | [8] 0.108 | [9] 0.149 | tipifarnib -0.031 | mubritinib 0.018

2 consecutive entries from above:
ASAP1 isoform 2 (UniProt Q9ULH1)
inactive: [1] -0.032 | crizotinib -0.08 | [2] -0.022 | [3] -0.015 | duvelisib 0.01 | gandotinib 0.035 | tozasertib 0.052 | [4] 0.058 | doramapimod 0.057 | ispinesib 0.018 | bafetinib 0.151 | [5] 0.037 | nilotinib -0.034 | [6] -0.026 | dasatinib -0.071 | [7] 0.008 | [8] 0.031 | [9] 0.029 | tipifarnib 0 | mubritinib 0.122

ATG101 (UniProt Q9BSB4)
inactive: [1] -0.061 | crizotinib 0.018 | [2] -0.008 | [3] -0.012 | duvelisib 0.033 | gandotinib -0.007 | tozasertib -0.003 | [4] -0.044 | doramapimod -0.009 | ispinesib 0.044 | bafetinib -0.047 | [5] -0.03 | nilotinib 0.025 | [6] 0.088 | dasatinib 0.019 | [7] -0.021 | [8] -0.035 | [9] -0.046 | tipifarnib 0.049 | mubritinib 0.05

(listing goes on)

ARPC2 (UniProt O15144)
inactive: [1] 0.042 | crizotinib 0.065 | [2] -0.007 | [3] -0.064 | duvelisib 0.009 | gandotinib 0.038 | tozasertib 0.027 | [4] -0.019 | doramapimod -0.001 | ispinesib 0.06 | bafetinib -0.026 | [5] -0.002 | nilotinib 0.083 | [6] 0.002 | dasatinib 0.054 | [7] 0.027 | [8] -0.055 | [9] -0.006 | tipifarnib -0.015 | mubritinib 0.049

ATN1 (UniProt P54259)
inactive: [1] 0.002 | crizotinib -0.036 | [2] -0.08 | [3] 0.015 | duvelisib -0.024 | gandotinib -0.002 | tozasertib 0.007 | [4] -0.07 | doramapimod 0.016 | ispinesib 0.033 | bafetinib 0.02 | [5] -0.063 | nilotinib 0.039 | [6] -0.016 | dasatinib -0.02 | [7] 0.054 | [8] 0.059 | [9] 0.015 | tipifarnib -0.008 | mubritinib -0.054

ARL2 (UniProt P36404)
inactive: [1] -0.007 | crizotinib 0.002 | [2] 0.088 | [3] -0.027 | duvelisib 0.072 | gandotinib -0.085 | tozasertib 0.015 | [4] -0.024 | doramapimod -0.025 | ispinesib 0.036 | bafetinib 0.014 | [5] 0.04 | nilotinib -0.045 | [6] 0.009 | dasatinib 0.018 | [7] 0.01 | [8] 0.015 | [9] -0.012 | tipifarnib -0.038 | mubritinib -0.024

ASRGL1 (UniProt Q7L266)
inactive: [1] 0.085 | crizotinib 0.042 | [2] 0.044 | [3] -0.019 | duvelisib 0.022 | gandotinib -0.079 | tozasertib 0.011 | [4] -0.063 | doramapimod -0.005 | ispinesib 0.012 | bafetinib -0.147 | [5] 0.038 | nilotinib 0.027 | [6] 0.018 | dasatinib 0.005 | [7] 0.03 | [8] 0.052 | [9] 0.084 | tipifarnib -0.034 | mubritinib 0.08

ATG2A isoform 3 (UniProt Q2TAZ0)
inactive: [1] 0.017 | crizotinib -0.019 | [2] 0.071 | [3] -0.036 | duvelisib 0.046 | gandotinib -0.048 | tozasertib -0.012 | [4] -0.025 | doramapimod 0.006 | ispinesib -0.016 | bafetinib -0.077 | [5] 0.045 | nilotinib -0.015 | [6] -0.021 | dasatinib 0.009 | [7] -0.003 | [8] 0.06 | [9] 0 | tipifarnib -0.014 | mubritinib 0.047
